{"source": "patent US8748481B2", "about": "“Method for treating gastrointestinal disorder” (Sucampo AG, priority 2004, dated 2014)", "test_system": "subjects with irritable bowel syndrome (IBS)", "experiment": "IBS QOL questionnaire, 12-week double-blind randomized study (Example 7)", "type": "in vivo, human", "settings": "48 μg/day; Week 12; without LOCF", "procedure": "A 12-week, double-blind, randomized study was performed to assess the safety and efficacy of oral 16 μg, 32 μg and 48 μg (total daily dose) of compound A to subjects with irritable bowel syndrome (IBS).\nThe patients answered the IBS QOL questionnaire at baseline, at week 4, Week 12 and at the end of study, and Questionnaire results were scored according to the IBS QOL User's Manual (A Quality of Life Measure for Persons with Irritable Bowel Syndrome (IBS-QOL): User's Manual and Scoring Diskette for United States Version. Seattle, Wash.: University of Washington; 1997). Scaled scores were used for all analyses, and scores were calculated according to the User's Manual as follows: Scaled Score=([Sum of IBS-QOL items−lowest possible score]/Possible raw score range))×100\nChanges from baseline at week 4, week 12 and at the End of Study were assessed for the mean overall score and for the mean domain scores (dysphoria, interference with activity, body image, health worry, food avoidance, social reaction, sexual, and relationship).", "note": "For at least one compound, name, drawing or mass did not settle the structure."}
{"smiles": "CCCCC(F)(F)C(=O)CCC1C(O)CC(=O)C1CCCCCCC(=O)O", "note": "(stereo not shown) [Compound A, 13,14-dihydro-15-keto-16,16-difluoro-PGE1]", "values": [{"measurement": "IBS QOL Food Avoidance, Mean change from Baseline", "value": "11.3**9"}]}
